Source: PubChem BioAssay AID743458 (Peter MacCallum Cancer Centre, 2014)
The whole screen tested about 1,800 reagents; shown is a random part of them. Over the whole deposit, 732 (41%) got an active call. 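Calls are per siRNA reagent; a gene was deemed confirmed only if most of its four siRNAs scored.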 No sequences are given here.

Screen: 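Retest earlier hits with independent siRNAs per gene for restoring vorinostat sensitivity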 (follow-up of hits)
Cell system: human HCT116-VR colon cancer cells made resistant to vorinostat
Reagents: single siRNA or pool against human genes, 25 nM per single siRNA
Timing: about 72 h after transfection, including 24 h of drug
Treatment: vorinostat, 2.5 µM final, for 24 h
Measurement: 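Live-cell fluorescent viability and luminescent caspase 3/7 activity after vorinostat treatment, background subtracted, mean of duplicate plates, as fold change over mock-transfected wells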
Scale: viability relative to mock: higher = more living cells than mock; caspase activity relative to mock: higher = more apoptosis than mock
Active means: 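An siRNA counts as active if classed as reduced viability or as caspase activation, otherwise inactive; a hit class needed wells that remained healthy in the absence of drug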

OXTR (GeneID 5021) [SID134234233]: viability relative to mock = 1.04; caspase activity relative to mock = 1.45; viability hit class = no change; caspase hit class = no change; Outcome = inactive
OXTR (GeneID 5021) [SID134234234]: viability relative to mock = 0.54; caspase activity relative to mock = 5.11; viability hit class = reduced viability; caspase hit class = caspase activation; Outcome = active
OXTR (GeneID 5021) [SID134234235]: viability relative to mock = 0.87; caspase activity relative to mock = 1.21; viability hit class = no change; caspase hit class = no change; Outcome = inactive
OXTR (GeneID 5021) [SID152151223]: viability relative to mock = 1.02; caspase activity relative to mock = 1.26; viability hit class = no change; caspase hit class = no change; Outcome = inactive
UFSP1 (GeneID 402682) [SID134307029]: viability relative to mock = 0.64; caspase activity relative to mock = 4.55; viability hit class = no change; caspase hit class = caspase activation; Outcome = active
UFSP1 (GeneID 402682) [SID134307030]: viability relative to mock = 0.7; caspase activity relative to mock = 2.47; viability hit class = no change; caspase hit class = no change; Outcome = inactive
UFSP1 (GeneID 402682) [SID134307031]: viability relative to mock = 0.91; caspase activity relative to mock = 1.47; viability hit class = no change; caspase hit class = no change; Outcome = inactive
UFSP1 (GeneID 402682) [SID134307032]: viability relative to mock = 0.92; caspase activity relative to mock = 1.41; viability hit class = no change; caspase hit class = no change; Outcome = inactive

Hits, among the entries above:
OXTR (GeneID 5021) [SID134234234]: viability relative to mock = 0.54; caspase activity relative to mock = 5.11; viability hit class = reduced viability; caspase hit class = caspase activation; Outcome = active
UFSP1 (GeneID 402682) [SID134307029]: viability relative to mock = 0.64; caspase activity relative to mock = 4.55; viability hit class = no change; caspase hit class = caspase activation; Outcome = active

Continued:
CCDC126 (GeneID 90693) [SID134271901]: viability relative to mock = 0.91; caspase activity relative to mock = 1.06; viability hit class = no change; caspase hit class = no change; Outcome = inactive
CCDC126 (GeneID 90693) [SID134271902]: viability relative to mock = 0.64; caspase activity relative to mock = 4.54; viability hit class = no change; caspase hit class = caspase activation; Outcome = active
CCDC126 (GeneID 90693) [SID134271904]: viability relative to mock = 0.66; caspase activity relative to mock = 4.07; viability hit class = no change; caspase hit class = caspase activation; Outcome = active
CCDC126 (GeneID 90693) [SID135615027]: viability relative to mock = 0.87; caspase activity relative to mock = 1.08; viability hit class = no change; caspase hit class = no change; Outcome = inactive
